The values below come from article PMC9002759, “The Sunflower WRINKLED1 Transcription Factor Regulates Fatty Acid Biosynthesis Genes through an AW Box Binding Sequence with a Particular Base Bias”.

No signal at the amounts used counts as a negative. Construct, isoform or probe ends are uncertain for at least one entry. The comparison behind a weaker result is the experiment's own reference, which may not be listed here.

One series deals with HaWRI1_DBD (6-His-TRX-WRI1_DBD) (Helianthus annuus (CAS-6 line)) (UniProt X2BZR1). Put plainly: EMSA. The settings on record: 20 mM Tris-HCl pH 8.0, 250 mM NaCl, 2 mM MgCl2, 1% glycerol, 1 mM DTT, 1 mg/mL BSA, 30 min room temperature, gels at 4 °C; DIG EMSA plus 0.05 µg/µL polydIdC; recombinant protein; residues 51-229; protein details: N-terminal 6xHis-thioredoxin fusion; probe letters rebuilt from the primers and the genome. A general note: Mobility shift assays separate free from complexed probe on a gel.
Turning to “GGTGGGTTACCGGGTTTTCCTCGGAATTGGTGGTGGACTCTGGTTACTCTTGGAGTACTCCGATTGTGTTCGAAGGATGCTCAGGATTGATTATGTTGGCCGTTAAAAAAAAAAAGTTGAAGGGGGTTCTATGGGCTTGAACACTACATGGATGTATTTTTCCTTTTTAGGTCAAGTTGCGTAGGCGTTTCCTCTACCGGTCGCCCGGTCTAGAACATAGAGCTGGCATATAGCTCA (double strand) [KASIII-17g (-277)]”, the binding result is “no binding”.
Still for that read-out and setting: the value for “GTAACCAGAGTCCACCACCAATTCCGAGGAAAACCCGGTAACCCACCGGCCGGTAGACACCACGATAAAATTACCGTTAAAACCCGTTTGGCTCAAGGATCGAACCTAGGTTTCCTTGTGTCTCCAATCATTGTCCACCAGTGCCTCACTCTGTACCAAATGGAAGTTGAACCTACATCTCCCAAAAGAAATGCAAGTCTGCCACTACTTGATCTAAAAATTATTGGCCCCTCTTCAACTATATATATAGGAGAAGGATCCGTTATGAAC (double strand) [KASIII-17g (-376/-342)]” was “no binding”; that for “GTAAGAGCATGAGTGGCTTGGCGAACGTGGTGTGGACGGAGACGAGTGTGTGGGCCCTGTGCCAGCCCAGTGAACGCCAAACGAGCACACAACAAGCGAAGTGGGGTGAAAAAATAAATTATCGCCCATAGTTTAATAGTAGTATCAGTAACCCCTGACCGGTTGATTTCTCGATGTCAAAATGAACCTAATATTTTACCTATAAATACCTAACACACTCTCATCGTCTCCTCCGCCGATTATTCTCGAATTCTTGTTATCAGATCAGATCATATCAGATCTATCC (double strand) [ACP2-14g (-65)]” was “no binding”.
Take “GTATTGATTGTGTGGGTCGATGGTATTTTAGTGGCGAGTTGCAGGAGAATTGGGGCTTTGGTTGTAACGCCTGTTCGGCTACAGCGGTAGTGCATGGTAAGATCTGTGTTGACCAATGTGTATGCGACACGTGTTACTGGATTACACTTGGTTGATGGATTATTTGTCTACGTGGATGAATTTGAGTGGTTGATGTGTTTAGCTCTCTGTCTTGAACAATCGGTGCCGTTGGTGTAGTTGTGGTATAGGGTTCGGT (double strand) [βPDH-16g (-179)]”: the binding result was “binds”.
For “GTGCAAATAGTAACAAACGCCCAAAGGGAACTTACAAAATATCAAGTATGTATCAGCCCAAGAAAAGAGCCCAAAAGAAACTTGCTGAACTCCCCCCAAGCGCTGAGGAAAATCAGTGACGACCACAGTCCAACAAACAGTCATTCTCCTTGCCATTGTTAACTCCGCCCCCTTCCGG (double strand) [LPD-10g (-98)]”, the binding result is reported as “binds”.
The same measure, in the same setting: the value for “GTGTGTGAGGAGAGTGTGTGTTGGTGGCAGGGGTATATATTGTAAATGCGAGGGCATCGGGATATCCGCAACCTTTGGTGACGAGGGTTTTTAGTCACTATTAAGTTGTGACCAATAATAACGTGCCTTTCTTTTTCTTTTCTCTACACCCACTTTGTTAGGTACTTGGAGTTGGGTACTCATGTAATGTAA (double strand) [ACP1-7g (-126)]” was “binds”; that for “GTTGATATCGCCTAACATTTAACACTACTCTACTCTATATCTTCGGTTCCCTCGCCCCCACACCCATACAAGACTCCCCCACCATTGCAGTTCCAGTCTATCTCTTTTGCTTCTTCAATAATCAATACAAC (double strand) [BCCP-16g (-92)]” was “no binding”.
The same measure, in the same setting: the value for “TCTTAGGGTGTAAGGGGTGCTCACCTAAGAGGTGAGTCCCTCTTACGCCCAATCAATCCTCGTGTGTCACGTCAACTCCTCTCTTAAACTTCTCTAACACCCTAAATTGATGGCGGCACTCCCCTCTATGATGACTTGGTTTTTATTAAAAAAAGAAAAAAGAAAAGTTTTGATTGGTCCACTCATCCTCTCTCCTCCTTCTCTCCTCCC (double strand) [BCCP-16g (-252)]” was “binds”; that for “TCTTCACTTGGAGGGTGTGATAATGGAGCCCATATGGGTGCTATACATGGTGACATGGCGAGGATGGAGCCCCCACACCCTCTCCAGCCTAACATGTTTTTCTCTATTAAATTGACGCACAAAAAGTCCAAAACCTTCATTGATTTCTCCGCCTAGTGTGTGCTCGTTTTAAACTTGATCTCCTTCATGATTTAATATCCCCTC (double strand) [βPDH-17g (-99)]” was “binds”.
On the same count and under the same terms, the value for “TGTTACTTAACACGAGACAATAGGCTTTTAAATGTTTAATCCTGAACTAACCAATATCTTGTTCGCAAATACTTAAAATGGCCCAGTGTCCCAACCCAACCACCTTACTAATATGTCAAAAGTGCGTTAGTTTGGGGTTAGACCAACGAACTCGGATGGCATGGCCTATGATCTTGGGGCGATGTTTACACTGCACTCATTCCCTCGTCTTCTCCGCCTCACTCTGCAACTCCACTCTCTCTCTCTCTCTACAATTCACCCGTAACCTGCAACTCCAGTGTCATCCTCCCTAATTCAACCGAACGCT (double strand) [DHLAT-12g (-105)]” was “binds”; that for “TTGTTTAATATGGGCTCCATCCACACCATGTAAATTAAAAGGGGGCTCCATAGGTGAGGTGGATCCTAGGTGGACTTGATAAAGCCCCATGGGGCTCCATCCACACCTCATAGCCTTAGTGGGCCGTGGGCGTCATCGATTTGTGGGGTGTTTGGTGTTGCGTTTTCAAAATAGATTATGCGTTTTCAAAACTGCGTTTTGAAAAAGCATGTAAGTACATGCTTCTCCAAAACTGCGTTTTGAAGGCAGATAATCAC (double strand) [βPDH-17g (-464)]” was “no binding”.
Take “TTTGGAGGAAAGGTTAGGTTGTAGAGAAGGTGGAGATGAGTGGTATATAACAATGGGAGCTTCGAGAGGTCCGCCGGAAGGGGGAAGAGTTAACAATGGCAAGGAGAATGACTGTTTGTTGGACTGTGGTCGTCACTGATTTTCCTCAGCGCTTGGGGGGAGTTCAGCAAGTTTCTTTTGGGCTCTTTTCTTGGGCTGATACATACTTGATATTTTGTAAGTTCCCTTTGGGCGTTTGTTACTATTTGCAC (double strand) [LPD-10g (-73)]”: the binding result is recorded as “binds”.

The series is the same for the next values; noted with them: smear; 20 mM Tris-HCl pH 8.0, 250 mM NaCl, 2 mM MgCl2, 1% glycerol, 1 mM DTT, 1 mg/mL BSA, 30 min room temperature, gels at 4 °C; DIG EMSA plus 0.05 µg/µL polydIdC; recombinant protein; residues 51-229; protein details: N-terminal 6xHis-thioredoxin fusion; probe letters rebuilt from the primers and the genome.
For “TGTTATAAACCCTGTTTTGAATGCCAAAATTCTTTCGATACTTCCAAAGCTTTCCAACGGCCCTCACAAAGACCATCTCATCTCATCTCACTTTGTTTTAATCGAAACCTACCTGTCTTCTTCATCCCCACTTATACACTCACGCCCACAACAACAAAATAAACATCCTTCCTGTGATC (double strand) [ENR-17g (-699/-677/-644)]”, the binding result is recorded as “binds more weakly”.
Turning to “TTGAAGGTGGTGTGTATGAAGGTATAGATAGATATATATGAGTCGATGATTACAAATTTCGATCAAAACGATGAATGATGGTCTTTGTGAGGGCCGTTGGGAAGCTTTGGAAGTATCGAAAAGGAAACAGGTGAGGATTGGGTGAGAGTTTTGGGATTCAAAC (double strand) [ENR2-16g upstream boxes]”, the binding result is listed as “binds more weakly”.
